The source of these data is patent publication US9017689B2 (Circassia Limited, priority 2010, dated 2015).

Plain letter strings leave the end groups untold.

A short description of this series: peptide synthesis. The conditions noted are these: whole synthesis, HPLC, scale of the general procedure approximately 10 mg batch size, non-GMP.
On to PAARMFKAFILEGDKLVPK, for which the “final purity (method not given)” value turned out to be 97.4%.

As to AERERIFKRFDANGEGK, the “final purity (method not given)” value worked out at 98.4%.

Turning to SNEIKIVATPEGGSILK, the “final purity (method not given)” value was 97.9%.

Take KEMGETLLRAVESYLLAHS: the “final purity (method not given)” value came out at 97.3%.

Take AKYMVIQGEPGRVIRGK: the “final purity (method not given)” value came to 97.3%.

As to ETLLRAVESYLLAHSDAY, the “final purity (method not given)” value came out at 97.5%.

With FNYETETTSVIPAARK, the “final purity (method not given)” value came to 99.2%.

Regarding PGTIKKISFPEGFPFKYV, the “final purity (method not given)” value is reported as 98.1%.
